Experimental findings from publication PMC11700839 are described below.

Sequences of proteins named here, by UniProt entry; tags and fusion partners are left off.
UniProt Q12778: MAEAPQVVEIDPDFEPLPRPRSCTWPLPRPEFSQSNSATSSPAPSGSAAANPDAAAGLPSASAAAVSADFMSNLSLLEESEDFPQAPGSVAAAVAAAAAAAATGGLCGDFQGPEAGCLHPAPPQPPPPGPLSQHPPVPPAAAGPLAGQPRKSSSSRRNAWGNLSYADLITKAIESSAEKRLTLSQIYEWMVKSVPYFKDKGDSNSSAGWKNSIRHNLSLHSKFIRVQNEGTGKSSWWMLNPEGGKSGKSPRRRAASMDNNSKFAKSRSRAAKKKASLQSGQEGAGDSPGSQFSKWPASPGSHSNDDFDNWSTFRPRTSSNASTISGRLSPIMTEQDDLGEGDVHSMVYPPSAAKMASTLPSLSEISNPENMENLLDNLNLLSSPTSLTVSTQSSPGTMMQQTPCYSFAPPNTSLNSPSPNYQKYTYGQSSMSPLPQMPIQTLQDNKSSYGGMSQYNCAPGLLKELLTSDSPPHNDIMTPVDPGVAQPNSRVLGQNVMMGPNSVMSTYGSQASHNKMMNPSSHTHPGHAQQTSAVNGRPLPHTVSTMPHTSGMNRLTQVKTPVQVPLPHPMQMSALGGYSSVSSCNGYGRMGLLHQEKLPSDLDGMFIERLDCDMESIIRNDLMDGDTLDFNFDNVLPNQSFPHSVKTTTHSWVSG

The target of this test is T1, ETS1 transcription factor (endogenous, FP-RMS cells) (human (endogenous in Rh30 and Rh41)) (UniProt P14921).
T1 sequence: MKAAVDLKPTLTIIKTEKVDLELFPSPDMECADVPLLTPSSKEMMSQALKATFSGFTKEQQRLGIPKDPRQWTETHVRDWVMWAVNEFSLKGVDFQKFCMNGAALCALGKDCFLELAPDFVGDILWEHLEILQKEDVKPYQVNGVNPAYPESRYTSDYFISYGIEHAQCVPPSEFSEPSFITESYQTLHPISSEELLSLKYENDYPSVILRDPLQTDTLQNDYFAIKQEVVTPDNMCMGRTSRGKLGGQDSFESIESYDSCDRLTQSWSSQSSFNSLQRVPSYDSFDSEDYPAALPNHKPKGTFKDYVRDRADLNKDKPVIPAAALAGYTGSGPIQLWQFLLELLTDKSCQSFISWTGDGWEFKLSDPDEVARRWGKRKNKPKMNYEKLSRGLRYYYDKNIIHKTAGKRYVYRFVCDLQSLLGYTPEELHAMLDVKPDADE
The test can be described thus: co-IP; endogenous proteins from Rh30 and Rh41 cells, IP with ETS1 antibody (rabbit IgG as negative control), immunoblot; also with Ethidium Bromide or Benzonase in the IP; also cells pre-treated 16 hours with 1 µM YK-4-279 or DMSO and the same included in the IP reaction, recovery by densitometry normalized to ETS1. For orientation: Immunoblotting shows a protein as a band on a membrane.

Results are given in words; binding and its absence hold for the method and conditions named. In cells and extracts the contact can be indirect. Some entries that bind do so weakly or less than the wild type.

On to “FOXO1 (endogenous, FP-RMS cells) (from UniProt Q12778 1-655)”, for which the binding result was “binds”.
